The campaign covered roughly 320,000 compounds. About 22,000 (6.9%) were called active. The inconclusive results got no clear call from the source; some entries with a clear call stand among them for comparison. Calls come from the whole dose curve; as a rule, active = well fitted inhibition curve with a large enough effect; inconclusive = small, poorly fitted or top-dose-only effect, or another doubt; inactive = no such curve, though single readings can be large or run the other way. Where the call is inconclusive, the potency comes from a doubtful curve fit.
assay: Primary qHTS for delayed death inhibitors of the malarial parasite plastid, 96 hour incubation; settings: P. falciparum luciferase reporter growth; series mostly up to 28.7 µM; activity change, negative = inhibition: at the top concentration
Summary of the method: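 96 h incubation, 37 C, 5% CO2, of luciferase-reporter P. falciparum-infected RBCs (2% hematocrit, 0.05% parasitemia final) with test compounds; endpoint luminescence.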
% is set by controls: 0 for no effect and ±100 for the full control effect; potency is the fitted concentration of half-maximal effect.

| Structure (SMILES) | Potency | activity change, negative = inhibition |
| --- | --- | --- |
| O=C(c1cccc(F)c1)N1CCN(Cc2ccco2)CC1 | active: 6.57 µM | – |
| Clc1ccc(C2=CSC3=Nc4cccc5cccc(c45)N23)cc1 | active: 3.7 µM | – |
| COc1ccccc1NC(=O)N1CCN(c2ccc3nnc(-c4ccc(F)cc4)n3n2)CC1 | inconclusive: 10.4 µM [inhibitor, single point] | – |
| Cc1nn(CCc2nc(-c3ccco3)cs2)c2[nH]c(=O)cc(C(F)(F)F)c12 | active: 9.28 µM | – |
| Cc1ccc(C(=O)Nc2ccccc2N2CCCC2)cc1 | – | inactive: 19.7% |
| O=[N+]([O-])c1ccc(/C=C/c2ccncc2)cc1 | inconclusive: 18.5 µM [inhibitor, single point] | – |
| CCOC(=O)C(=O)Nc1nnc(COc2ccccc2)s1 | inconclusive: 14.7 µM [inhibitor, partial curve, poor fit] | – |
| O=C(CSc1nc(O)c(-c2ccccc2)c(=O)[nH]1)N1CCOCC1 | inconclusive: 2.94 µM [inhibitor, partial curve, poor fit] | – |
| CC(=O)OC1C(N2CCCCC2)c2c(ccc(/C=C/C(=O)N3CCCCC3)c2O)OC1(C)C (centres undefined) | – | inactive: 12.5% |
| COCCNC(=S)NNC(=O)c1cc(C2CC2)nc2ccccc12 | – | inactive: 0% |
| O=C1/C(=C/c2cc([N+](=O)[O-])ccc2Cl)N2CCC1CC2 | inconclusive: 0.0828 µM [inhibitor, full curve, poor fit] | – |
| CC(C)C(=O)Nc1nnc(S(=O)(=O)N2CCc3ccccc32)s1 | inconclusive: 18.5 µM [inhibitor, single point] | – |
| Cc1ccc2nc(Cl)c(/C=N/Nc3nc(C)cc(C)n3)c(=O)n2c1 | – | inactive: -19.2% |
| CCOC(=O)N1CCC(NC(=O)c2ccc3c(c2)sc2nc(-c4cccc(OC)c4)cn23)CC1 | – | inactive: 9.88% |
| Cc1ccc(-c2csc(NC(=O)c3ccc(S(=O)(=O)N4CCc5ccccc54)cc3)n2)cc1 | active: 13.1 µM | – |
| Cn1c(CCNC(=O)c2cc(COc3ccc(F)c(F)c3)on2)nc2ccccc21 | inconclusive: 18.5 µM [inhibitor, single point] | – |
| CC1(C)Oc2ccc(NC(=O)c3ccco3)cc2O1 | – | inactive: -23.6% |
| CCN(CC)C(=S)Nc1c(C)n(C)n(-c2ccccc2)c1=O | inconclusive: 13.1 µM [inhibitor, partial curve] | – |
| C/C(Cl)=C/CC1(CN2CCCC2=O)C(=O)NC(=O)NC1=O | inconclusive: 18.5 µM [inhibitor, single point] | – |
| COc1ccc(CCNC(=O)/C=C/c2ccc(OC)c(S(=O)(=O)N3CCOCC3)c2)cc1 | inconclusive: 9.28 µM [inhibitor, partial curve] | – |
| Cc1cccc(C)c1NC(=O)CN(C)C(=O)c1ccc(-c2cccc(C(F)(F)F)c2)o1 | inconclusive: 9.28 µM [inhibitor, partial curve, poor fit] | – |
| Cc1ccccc1C(=O)NNC(=O)C1CC(=O)N(c2ccc3c(c2)OCCO3)C1 (centres undefined) | – | inactive: 16.1% |
| CC(C)c1ccccc1NC(=O)C1CCCN(C(=O)c2ccc(Cl)cc2)C1 (centres undefined) | – | inactive: 0% |
| Cc1ccccc1N1CCN(C2=NC(=O)/C(=C\c3cccs3)S2)CC1 | active: 10.4 µM | – |
| O=[N+]([O-])c1cccc(-n2nnnc2CN2CCCC2)c1 | – | inactive: 23.3% |

| Structure (SMILES) | Potency | activity change, negative = inhibition |
| --- | --- | --- |
| CCN1C(=NCc2ccc(OC)cc2)N[C@@H](c2ccccc2)C(C(=O)OC)=C1C | inconclusive: 0.0033 µM [inhibitor, full curve, poor fit] | – |
| O=C(Cc1n[nH]c(=O)[nH]c1=O)N/N=C/CCc1ccccc1 | – | inactive: -19.1% |
| CSc1nncc(-c2ccc(F)c(F)c2)n1 | inconclusive: 14.7 µM [inhibitor, single point] | – |
| CCc1ccc(C(=O)O)cc1 | – | inactive: -4.08% |
| COc1cc(OC)c(-n2cc(-c3ccc(Cl)cc3)[nH]c2=O)cc1Cl | – | inactive: 55.8% |
| Cc1occc1C(=O)Nc1cc(S(=O)(=O)N2CCOCC2)ccc1OC(C)C | inconclusive: 14.7 µM [inhibitor, single point] | – |
| CSc1nc2c(cc1C#N)CCCCC2 | inconclusive: 10.4 µM [inhibitor, single point] | – |
| COc1cc(C(=O)OCC(=O)Nc2nnc(-c3ccccc3)o2)cc(OC)c1OC | inconclusive: 14.7 µM [inhibitor, partial curve, poor fit] | – |
| COc1ccc(CNC(=O)C2(C)Cc3ccccc3C(=O)O2)cc1 (centres undefined) | – | inactive: -9.25% |
| COc1ccc(C(=O)Nc2ccc(O)c3c(=O)cc(-c4cccc(Cl)c4)oc23)cc1 | inconclusive: 18.5 µM [inhibitor, single point] | – |
| CNc1ccc(C(=O)N2CCN(S(=O)(=O)c3ccc4c(c3)OCCCO4)CC2)cc1[N+](=O)[O-] | active: 11.7 µM | – |
| COc1ccc(N2CCN(C(=O)CN(C)S(=O)(=O)c3cnc[nH]3)CC2)cc1 | – | inactive: -4.63% |
| CC(=O)Nc1ccc(OCC(O)Cn2c3ccccc3c3ccccc32)c(C)c1 (centres undefined) | active: 10.4 µM | – |
| O=C(C1CC1)N(CCN(Cc1ccccc1)C(=O)C1CC1)Cc1ccccc1 | inconclusive: 2.33 µM [inhibitor, partial curve, poor fit] | – |
| COc1ccccc1NC(=O)CSc1nc2sc3c(c2c(=O)n1-c1ccccc1)CCN(C)C3 | active: 1.65 µM | – |
| O=C(CSc1nnc(SCc2cccc3ccccc23)s1)N=Nc1c(O)[nH]c2ccccc12 | – | inactive: -25.7% |
| COc1ccc(NC(=O)c2sc3ncn(CC(=O)N4CCN(c5ccccn5)CC4)c(=O)c3c2C)cc1OC | inconclusive: 2.62 µM [inhibitor, full curve] | – |
| COc1ccc(-c2coc3c(CN4CCCCC4)c(O)c(CN4CCCCC4)c(O)c3c2=O)cc1 | – | inactive: 88.4% |
| CC(=O)N1CCN(c2nc3ccc([N+](=O)[O-])cc3s2)CC1 | – | inactive: 46% |
| COc1ccc(NC(=O)c2cnc(NS(=O)(=O)c3ccccc3)nc2)cc1 | – | inactive: 82.4% |
| CC[n+]1c(/C=C/N(C)c2ccccc2)oc2ccc(F)cc21 | inconclusive: 0.37 µM [inhibitor, full curve, poor fit] | – |
| C=CCSc1nnc(-c2ccccc2NC(C)=O)c(=O)[nH]1 | inconclusive: 11.7 µM [inhibitor, single point] | – |
| CCOC(=O)CSc1nc2ccsc2c(=O)[nH]1 | – | inactive: 0.217% |
| CCC(C(=O)NCc1ccco1)N(C(=O)CNS(=O)(=O)c1ccccc1)c1ccc(F)cc1 (centres undefined) | inconclusive: 0.208 µM [inhibitor, full curve, poor fit] | – |
| C=CCn1c(SCC(=O)O)nc2sc(CC)cc2c1=O | inconclusive: 0.0928 µM [inhibitor, full curve, poor fit] | – |

Quoted at random: 7 compounds from above

| Structure (SMILES) | Potency | activity change, negative = inhibition |
| --- | --- | --- |
| CC[n+]1c(/C=C/N(C)c2ccccc2)oc2ccc(F)cc21 | inconclusive: 0.37 µM [inhibitor, full curve, poor fit] | – |
| COc1ccc(NC(=O)c2cnc(NS(=O)(=O)c3ccccc3)nc2)cc1 | – | inactive: 82.4% |
| Cc1occc1C(=O)Nc1cc(S(=O)(=O)N2CCOCC2)ccc1OC(C)C | inconclusive: 14.7 µM [inhibitor, single point] | – |
| C=CCSc1nnc(-c2ccccc2NC(C)=O)c(=O)[nH]1 | inconclusive: 11.7 µM [inhibitor, single point] | – |
| COc1ccc(N2CCN(C(=O)CN(C)S(=O)(=O)c3cnc[nH]3)CC2)cc1 | – | inactive: -4.63% |
| CNc1ccc(C(=O)N2CCN(S(=O)(=O)c3ccc4c(c3)OCCCO4)CC2)cc1[N+](=O)[O-] | active: 11.7 µM | – |
| COc1ccccc1NC(=O)CSc1nc2sc3c(c2c(=O)n1-c1ccccc1)CCN(C)C3 | active: 1.65 µM | – |

The list goes on.

| Structure (SMILES) | Potency | activity change, negative = inhibition |
| --- | --- | --- |
| Cc1nc(NCc2ccco2)c(C#N)c2c1COC(C)(C)C2 | inconclusive: 11.7 µM [inhibitor, single point] | – |
| CC(C)C(=O)NC(=S)Nc1c(Cl)ccc2nsnc12 | inconclusive: 18.5 µM [inhibitor, single point] | – |
| COc1ccc(/C=C2\SC(c3ccc(C)cc3)=NC2=O)cc1OC | inconclusive: 13.1 µM [inhibitor, single point] | – |
| CC(NC(=O)COc1ccccc1)C(c1cccs1)N1CCCC1 (centres undefined) | inconclusive: 18.5 µM [inhibitor, single point] | – |
| COc1ccc2nc(SCc3cccc(C)c3)nc(C)c2c1 | inconclusive: 18.5 µM [inhibitor, single point] | – |
| O=C(CNC(=O)c1ccc(F)cc1)N/N=C/c1cc(Br)ccc1OC(=O)/C=C/c1ccco1 | inconclusive: 10.4 µM [inhibitor, single point] | – |
| Cc1ccc(S(=O)(=O)/C(C#N)=C/c2ccccc2OCc2ccccc2)cc1 | inconclusive: 0.117 µM [inhibitor, full curve, poor fit] | – |
| COC(=O)c1sccc1NC(=O)c1c(Cl)cccc1Cl | inconclusive: 3.29 µM [inhibitor, single point] | – |
| O=C(CNCc1cccs1)Nc1ccc(S(=O)(=O)N2CCCCC2)cc1 | – | inactive: 18.4% |
| Cc1ccc(C(=O)Nc2ccc(Cl)cc2C)c(Cl)c1 | – | inactive: -12.6% |
| CC(=O)OCCn1c(C)[n+](CCOC(C)=O)c2cc(Cl)c(Cl)cc21 | inconclusive: 10.4 µM [inhibitor, single point] | – |
| O=C(O)CCN=Cc1c(O)c2ccccc2oc1=O | inconclusive: 18.5 µM [inhibitor, single point] | – |
| CCc1nnc(NC(=O)CCC(=O)N2CCN(Cc3ccc(OC)c(F)c3)CC2)s1 | inconclusive: 9.28 µM [inhibitor, partial curve, poor fit] | – |
| CCC(C)NS(=O)(=O)c1cc2c3c(c1)CCN3C(=O)CC2 (centres undefined) | – | inactive: 12.3% |
| Clc1ccc(-c2nnc(N3CCCC3)nn2)cc1 | active: 0.586 µM | – |
| CC(NC(=O)COC(=O)c1cn(-c2ccccc2)nc1-c1cccs1)c1ccccc1 (centres undefined) | active: 3.29 µM | – |
| COc1ccc(C(=O)CC(=O)C(=O)Nc2cc(OC)ccc2OC)cc1 | inconclusive: 6.57 µM [inhibitor, partial curve, poor fit] | – |
| O=C1c2ccc([N+](=O)[O-])cc2C(=O)N1c1ccc(Cl)cn1 | – | inactive: -17.5% |
| CCCCN(C)CCNC(=O)c1c[nH]c2ccc(S(=O)(=O)N(CC)CC)cc2c1=O | – | inactive: -18.9% |
| COc1ccc(C)cc1N(C(=O)Cn1nnc(-c2ccc(C)o2)n1)C(C(=O)NC1CCCC1)c1ccncc1 (centres undefined) | active: 8.28 µM | – |
| CCc1ccc(-c2ccc(SCc3ccccn3)nn2)cc1 | – | inactive: -33.3% |
| Cc1nc2cc(-c3ccccc3)ccc2o1 | – | inactive: 17.8% |
| O=S(=O)(c1cccc(C(F)(F)F)c1)N1CCN(C(=S)NC2CC2)CC1 | inconclusive: 13.1 µM [inhibitor, single point] | – |
| COc1ccc(S(=O)(=O)N2CCc3cc4c(cc3C2C)OCCCO4)cc1 (centres undefined) | inconclusive: 13.1 µM [inhibitor, single point] | – |
